Source: paper PMC4643928
Results are given in words; binding and its absence hold for the method and conditions named.

Biological target: C-terminal domain of E. coli GyrA (residues 531-875) with the C-terminal acidic tail (E. coli) (UniProt P0AES4)
Assay: SEC; analytical SEC, Superdex 200 5/150 GL, 10 ul sample, 0.5 ml/min, 300 mM NaCl, 20 mM Tris/HCl pH 8.0; mass from elution volume against a calibration curve; both purified

binding: no binding
Substance: C-terminal domain of E. coli GyrA (residues 531-875) with the C-terminal acidic tail (from UniProt P0AES4 531-875) (domain or fragment)
